In patent publication US20250283871A1, “COMPOSITIONS AND METHODS FOR MODULATING THE INTERACTION BETWEEN SS18-SSX FUSION ONCOPROTEIN AND NUCLEOSOMES” (Dana-Farber Cancer Institute, Inc., priority 2020, published 2025):

Test system: BAF complex subunits and histone proteins
Assay: Mass spectrometry proteomics of purified HA-SS18 WT and HA-SS18-SSX1 complexes (Tables 5A-5E)
Set-up: species or system human
Conditions: for Total (total peptides) / Unique (unique peptides) / Total (peptides) / Unique (peptides): HEK-293T; for Total / Unique: HA-SS18SSX1_CHR_peptides; for Total: total peptides of the identified protein; for Unique: unique peptides of the identified protein
[1] = HA-SS18SSX1_CHR_peptides: protein identified in the HA-SS18-SSX1 purification from solubilized chromatin (CHR)
[2] = HA-SS18WT_CHR_peptides: HA-SS18 WT purification from nuclease-treated solubilized chromatin (CHR), label = protein identified
[3] = HA-SS18WT_CHR_peptides: protein identified in HA-SS18 WT BAF complex purification from nuclease-treated solubilized chromatin (CHR)
[4] = HA-SS18WT_NE_peptides: HA-SS18 WT complexes purified from nuclear extract (NE), label = protein identified (Gene Symbol)
[5] = HA-SS18WT_NE_peptides: proteins co-purified with HA-SS18 WT from nuclear extract (NE)
[6] = HA-SS18SSX1 purification, NE (soluble nuclear extract) fraction, peptides per identified protein

B1: NOLC1 (protein, UniProt Q14978 1-699, looked up)
Nucleolar and coiled-body …: MADAGIRRVVPSDLYPLVLGFLRDNQLSEVANKFAKATGATQQDANASSLLDIYSFWLKSAKVPERKLQANGPVAKKAKKKASSSDSEDSSEEEEEVQGPPAKKAAVPAKRVGLPPGKAAAKASESSSSEESSDDDDEEDQKKQPVQKGVKPQAKAAKAPPKKAKSSDSDSDSSSEDEPPKNQKPKITPVTVKAQTKAPPKPARAAPKIANGKAASSSSSSSSSSSSDDSEEEKAAATPKKTVPKKQVVAKAPVKAATTPTRKSSSSEDSSSDEEEEQKKPMKNKPGPYSSVPPPSAPPPKKSLGTQPPKKAVEKQQPVESSEDSSDESDSSSEEEKKPPTKAVVSKATTKPPPAKKAAESSSDSSDSDSSEDDEAPSKPAGTTKNSSNKPAVTTKSPAVKPAAAPKQPVGGGQKLLTRKADSSSSEEESSSSEEEKTKKMVATTKPKATAKAALSLPAKQAPQGSRDSSSDSDSSSSEEEEEKTSKSAVKKKPQKVAGGAAPSKPASAKKGKAESSNSSSSDDSSEEEEEKLKGKGSPRPQAPKANGTSALTAQNGKAAKNSEEEEEEKKKAAVVVSKSGSLKKRKQNEAAKEAETPQAKKIKLQTPNTFPKRKKGEKRASSPFRRVREEEIEVDSRVADNSFDAKRGAAGDWGERANQVLKFTKGKSFRHEKTKKKRGSYRGGSISVQVNSIKFDSE
Total (total peptides) [1]: 36 | Unique (unique peptides) [1]: 13 | Total: 1 | Unique: 1 | Total (peptides) [2]: 13 | Unique (peptides) [2]: 8 | Total (total peptides) [3]: 1 | Unique (unique peptides) [3]: 1 | Total (peptides) [4]: 4 | Unique (peptides) [4]: 4 | Total (peptides) [5]: 1 | Unique (peptides) [5]: 1

B2: SF1 (protein, UniProt Q15637 2-639, looked up)
Splicing factor 1: ATGANATPLDFPSKKRKRSRWNQDTMEQKTVIPGMPTVIPPGLTREQERAYIVQLQIEDLTRKLRTGDLGIPPNPEDRSPSPEPIYNSEGKRLNTREFRTRKKLEEERHNLITEMVALNPDFKPPADYKPPATRVSDKVMIPQDEYPEINFVGLLIGPRGNTLKNIEKECNAKIMIRGKGSVKEGKVGRKDGQMLPGEDEPLHALVTANTMENVKKAVEQIRNILKQGIETPEDQNDLRKMQLRELARLNGTLREDDNRILRPWQSSETRSITNTTVCTKCGGAGHIASDCKFQRPGDPQSAQDKARMDKEYLSLMAELGEAPVPASVGSTSGPATTPLASAPRPAAPANNPPPPSLMSTTQSRPPWMNSGPSESRPYHGMHGGGPGGPGGGPHSFPHPLPSLTGGHGGHPMQHNPNGPPPPWMQPPPPPMNQGPHPPGHHGPPPMDQYLGSTPVGSGVYRLHQGKGMMPPPPMGMMPPPPPPPSGQPPPPPSGPLPPWQQQQQQPPPPPPPSSSMASSTPLPWQQNTTTTTTSAGTGSIPPWQQQQAAAAASPGAPQMQGNPTMVPLPPGVQPPLPPGAPPPPPPPPPGSAGMMYAPPPPPPPPMDPSNFVTMMGMGVAGMPPFGMPPAPPPPPPQN
Total: 2 | Unique: 2 | Total (total peptides) [6]: 8 | Unique (unique peptides) [6]: 6 | Total (peptides) [4]: 5 | Unique (peptides) [4]: 4

B3: SMC6 (protein, UniProt Q96SB8 1-1091, looked up)
Structural maintenance of …: MAKRKEENFSSPKNAKRPRQEELEDFDKDGDEDECKGTTLTAAEVGIIESIHLKNFMCHSMLGPFKFGSNVNFVVGNNGSGKSAVLTALIVGLGGRAVATNRGSSLKGFVKDGQNSADISITLRNRGDDAFKASVYGNSILIQQHISIDGSRSYKLKSATGSVVSTRKEELIAILDHFNIQVDNPVSVLTQEMSKQFLQSKNEGDKYKFFMKATQLEQMKEDYSYIMETKERTKEQIHQGEERLTELKRQCVEKEERFQSIAGLSTMKTNLESLKHEMAWAVVNEIEKQLNAIRDNIKIGEDRAARLDRKMEEQQVRLNEAEQKYKDIQDKLEKISEETNARAPECMALKADVVAKKRAYNEAEVLYNRSLNEYKALKKDDEQLCKRIEELKKSTDQSLEPERLERQKKISWLKERVKAFQNQENSVNQEIEQFQQAIEKDKEEHGKIKREELDVKHALSYNQRQLKELKDSKTDRLKRFGPNVPALLEAIDDAYRQGHFTYKPVGPLGACIHLRDPELALAIESCLKGLLQAYCCHNHADERVLQALMKRFYLPGTSRPPIIVSEFRNEIYDVRHRAAYHPDFPTVLTALEIDNAVVANSLIDMRGIETVLLIKNNSVARAVMQSQKPPKNCREAFTADGDQVFAGRYYSSENTRPKFLSRDVDSEISDLENEVENKTAQILNLQQHLSALEKDIKHNEELLKRCQLHYKELKMKIRKNISEIRELENIEEHQSVDIATLEDEAQENKSKMKMVEEHMEQQKENMEHLKSLKIEAENKYDAIKFKINQLSELADPLKDELNLADSEVDNQKRGKRHYEEKQKEHLDTLNKKKRELDMKEKELEEKMSQARQICPERIEVEKSASILDKEINRLRQKIQAEHASHGDREEIMRQYQEARETYLDLDSKVRTLKKFIKLLGEIMEHRFKTYQQFRRCLTLRCKLYFDNLLSQRAYCGKMNFDHKNETLSISVQPGEGNKAAFNDMRALSGGERSFSTVCFILSLWSIAESPFRCLDEFDVYMDMVNRRIAMDLILKMADSQRFRQFILLTPQSMSSLPSSKLIRILRMSDPERGQTTLPFRPVTQEEDDDQR
Total: 2 | Unique: 2

B4: TBP (protein, UniProt P20226 1-339, looked up)
TATA-box-binding protein: MDQNNSLPPYAQGLASPQGAMTPGIPIFSPMMPYGTGLTPQPIQNTNSLSILEEQQRQQQQQQQQQQQQQQQQQQQQQQQQQQQQQQQQQQQQQQAVAAAAVQQSTSQQATQGTSGQAPQLFHSQTLTTAPLPGTTPLYPSPMTPMTPITPATPASESSGIVPQLQNIVSTVNLGCKLDLKTIALRARNAEYNPKRFAAVIMRIREPRTTALIFSSGKMVCTGAKSEEQSRLAARKYARVVQKLGFPAKFLDFKIQNMVGSCDVKFPIRLEGLVLTHQQFSSYEPELFPGLIYRMIKPRIVLLIFVSGKVVLTGAKVRAEIYEAFENIYPILKGFRKTT
Total: 2 | Unique: 2 | Total (total peptides) [3]: 1 | Unique (unique peptides) [3]: 1

B5: LMNB1 (protein, UniProt P20700 2-583, looked up)
Lamin-B1: ATATPVPPRMGSRAGGPTTPLSPTRLSRLQEKEELRELNDRLAVYIDKVRSLETENSALQLQVTEREEVRGRELTGLKALYETELADARRALDDTARERAKLQIELGKCKAEHDQLLLNYAKKESDLNGAQIKLREYEAALNSKDAALATALGDKKSLEGDLEDLKDQIAQLEASLAAAKKQLADETLLKVDLENRCQSLTEDLEFRKSMYEEEINETRRKHETRLVEVDSGRQIEYEYKLAQALHEMREQHDAQVRLYKEELEQTYHAKLENARLSSEMNTSTVNSAREELMESRMRIESLSSQLSNLQKESRACLERIQELEDLLAKEKDNSRRMLTDKEREMAEIRDQMQQQLNDYEQLLDVKLALDMEISAYRKLLEGEEERLKLSPSPSSRVTVSRASSSRSVRTTRGKRKRVDVEESEASSSVSISHSASATGNVCIEEIDVDGKFIRLKNTSEQDQPMGGWEMIRKIGDTSVSYKYTSRYVLKAGQTVTIWAANAGVTASPPTDLIWKNQNSWGTGEDVKVILKNSQGEEVAQRSTVFKTTIPEEEEEEEEAAGVVVEEELFHQQGTPRASNRSC
Total (total peptides) [1]: 33 | Unique (unique peptides) [1]: 21 | Total (total peptides) [6]: 17 | Unique (unique peptides) [6]: 16 | Total (peptides) [2]: 13 | Unique (peptides) [2]: 13 | Total (peptides) [4]: 17 | Unique (peptides) [4]: 12

B6: HNRNPA1L2 (protein)
chain: MSKSASPKEPEQLRKLFIGGLSFETTDESLRSHFEQWGTLTDCVVMRDPNTKRSRGFGFVTYATVEEVDAAMNTTPHKVDGRVVEPKRAVSREDSQRPGAHLTVKKIFVGGIKEDTEEHHLRDYFEQYGKIEVIEIMTDRGSGKKRGFAFVTFDDHDSVDKIVIQKYHTVKGHNCEVRKALPKQEMASASSSQRGRRGSGNFGGGRGDGFGGNDNFGRGGNFSGRGGFGGSCGGGGYGGSGDGYNGFGNDGSNFGGGGSYNDFGNYNNQSSNFGPMKGGNFGGRSSGPYGGGGQYFAKPQNQGGYGVSSSSSSYGSGRRF
Total: 2 | Unique: 2 | Total (total peptides) [3]: 1 | Unique (unique peptides) [3]: 1
